Source: PubChem BioAssay AID493014 (National Center for Advancing Translational Sciences (NCATS), 2011)
“And” between values parts separate entries of the source, which are not always exact repeats. Equal entries are not always repeated. In all, about 340,000 compounds went through this assay and about 170 (0.05%) were called active. This list was built around the results that the source calls inconclusive (neither active nor inactive); the mix of calls is not that of the screen. Calls follow the shape of the dose curve; as a rule, active = well fitted inhibition curve with a large enough effect in the signal ratio, with a control signal flat (not every such curve was filed as active); inconclusive = small, poorly fitted or top-dose-only effect, or effect the other way, or a change in a side signal; inactive = flat fitted curve, though single readings scatter; the % refers to the signal ratio. Where the call is inconclusive, the potency comes from a doubtful curve fit.

Experiment: qHTS Assay to Find Inhibitors of Chronic Active B-Cell Receptor Signaling;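 as to activity change, negative = inhibition: plate controls were basal doxycycline-induced cells for no effect and cells given 10 µM MG132 for full effect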
Details: ABC-DLBCL IkBa-CBG/CBR reporter, luminescence ratio (green luciferase fused to IkBa over red control in TMD8 lymphoma cells), 4 h; activity change, negative = inhibition: at 46.1 µM (top of the series)
How it was run: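 Compounds up to 46 uM were incubated four hours with TMD8 cells whose green CBG68 luciferase is fused to IkappaBalpha; red CBR luminescence normalised the signal, and concentration-effect curves were fitted to fusion, red and ratio data.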
Potency is read from the fitted curve at half-maximal effect.

Row | SMILES | activity change, negative = inhibition | Potency
1 | COc1ccc2ccc(O)c(CN3CCN(S(=O)(=O)c4cccc(C(F)(F)F)c4)CC3)c2c1 | inconclusive: -13.3% | –
2 | Cc1cc(C)c(OCC(O)CN2CCN(c3ccccn3)CC2)c(C)c1 (stereo unspecified) | – | inconclusive: 20 µM [falling, partial curve, poor fit]
3 | CC(/C=C1\SC(=S)N(CCCC(=O)Nc2ccc(C(=O)O)cc2)C1=O)=C\c1ccccc1 | inconclusive: -15.2% | –
4 | Fc1ccc(Cn2nnnc2C(c2ccc(Cl)cc2)N2CCSCC2)cc1 (stereo unspecified) | inconclusive: 4.19% | –
5 | CCS(=O)(=O)c1ccc(N=Nc2ccc(O)c3ncccc23)c(OC)c1 | inactive: 7.58% | –
6 | O=C(NCc1ccc(F)cc1)c1cnc(Cl)c(Cl)c1 | inactive: 9.65% | –
7 | Cc1ccnc(NC2c3ccccc3C(=O)N2Cc2ccccc2Cl)c1 (stereo unspecified) | inconclusive: 3.57% | –
8 | O=C(CCNc1n[nH]c(=O)[nH]c1=O)N/N=C\c1cccc(OCc2ccccc2)c1 | inconclusive: -12.8% | –
9 | COc1ccc(COc2ncnc3ccc(Br)cc23)cc1F | inactive: -14.6% | –
10 | CC(=O)Nc1cccc(-c2csc(Nc3ccc(C)cn3)n2)c1 | – | inconclusive: 1.03 µM [falling, partial curve]
11 | c1ccc(-c2nc(NCc3ccco3)c3oc4ccccc4c3n2)cc1 | – | inconclusive: 15.8 µM [rising, partial curve, poor fit]
12 | CCOc1ccccc1N(CC(=O)NC1CCCCC1)C(=O)c1nsc(Cl)c1Cl | – | inconclusive: 11.2 µM [falling, partial curve]
13 | N#Cc1ccsc1NC(=O)CN1CCN(Cc2ccccc2)CC1 | – | inconclusive: 6.31 µM [falling, single point]
14 | Clc1cccc(-c2ccc(-c3nc4ccccn4c3NCc3ccccc3)cc2)c1 | inconclusive: -6.44% | –
15 | O=[N+]([O-])c1ccc(C(c2sc3nc(-c4ccco4)nn3c2O)N2CCC3(CC2)OCCO3)cc1 (stereo unspecified) | inactive: -1% | –
16 | O=C(O)c1cccnc1Nc1cccc(C(F)(F)F)c1 | – | inconclusive: 20.6 µM [falling, single point]
17 | Cn1ncc2c(NNC(=O)c3ccc(Cl)c(Cl)c3)ncnc21 | – | inconclusive: 29.1 µM [falling, single point]
18 | O=C(Nc1cccc(NC(=O)c2ccco2)c1)c1ccc([N+](=O)[O-])cc1 | – | inconclusive: 3.55 µM [falling, partial curve]
19 | Cc1cc(C)n2nc(SCc3cccc(F)c3)nc2n1 | inconclusive: 4.98% | –
20 | Cc1ccc2nc(N3CCC(C(=O)O)CC3)nc(-c3ccccc3)c2c1 | inactive: 7.19% | –
21 | CCN(CC)CCNC(=O)Cn1cnc2sc(C)c(S(=O)(=O)N3CCN(c4ncccn4)CC3)c2c1=O | – | inconclusive: 25.1 µM [falling, partial curve, poor fit]
22 | Cc1cc(-c2ccccc2)nc(N/N=C/c2ccc(O)cc2O)n1 | inactive: 6.1% | –
23 | O=[N+]([O-])c1cccc(/C=N/Nc2ccccn2)c1 | inconclusive: 2.55% | –
24 | c1ccc(N2CCN(c3nc4cc5c(cc4s3)OCO5)CC2)cc1 | inconclusive: 17.8% | –
25 | C/C(=N/Nc1nc(C)c(C)s1)c1cccc([N+](=O)[O-])c1 | inconclusive: -12.5% | –
26 | CCCCCCNC(=O)Nc1ccccc1 | inactive: -10.3% | –

In another format: results already given
Row,SMILES,"activity change, negative = inhibition",Potency
1,COc1ccc2ccc(O)c(CN3CCN(S(=O)(=O)c4cccc(C(F)(F)F)c4)CC3)c2c1,inconclusive: -13.3%,–
3,CC(/C=C1\SC(=S)N(CCCC(=O)Nc2ccc(C(=O)O)cc2)C1=O)=C\c1ccccc1,inconclusive: -15.2%,–
4,Fc1ccc(Cn2nnnc2C(c2ccc(Cl)cc2)N2CCSCC2)cc1 (stereo unspecified),inconclusive: 4.19%,–
5,CCS(=O)(=O)c1ccc(N=Nc2ccc(O)c3ncccc23)c(OC)c1,inactive: 7.58%,–
6,O=C(NCc1ccc(F)cc1)c1cnc(Cl)c(Cl)c1,inactive: 9.65%,–
7,Cc1ccnc(NC2c3ccccc3C(=O)N2Cc2ccccc2Cl)c1 (stereo unspecified),inconclusive: 3.57%,–
8,O=C(CCNc1n[nH]c(=O)[nH]c1=O)N/N=C\c1cccc(OCc2ccccc2)c1,inconclusive: -12.8%,–
9,COc1ccc(COc2ncnc3ccc(Br)cc23)cc1F,inactive: -14.6%,–
11,c1ccc(-c2nc(NCc3ccco3)c3oc4ccccc4c3n2)cc1,–,"inconclusive: 15.8 µM [rising, partial curve, poor fit]"
14,Clc1cccc(-c2ccc(-c3nc4ccccn4c3NCc3ccccc3)cc2)c1,inconclusive: -6.44%,–
17,Cn1ncc2c(NNC(=O)c3ccc(Cl)c(Cl)c3)ncnc21,–,"inconclusive: 29.1 µM [falling, single point]"
21,CCN(CC)CCNC(=O)Cn1cnc2sc(C)c(S(=O)(=O)N3CCN(c4ncccn4)CC3)c2c1=O,–,"inconclusive: 25.1 µM [falling, partial curve, poor fit]"
22,Cc1cc(-c2ccccc2)nc(N/N=C/c2ccc(O)cc2O)n1,inactive: 6.1%,–
23,O=[N+]([O-])c1cccc(/C=N/Nc2ccccn2)c1,inconclusive: 2.55%,–
25,C/C(=N/Nc1nc(C)c(C)s1)c1cccc([N+](=O)[O-])c1,inconclusive: -12.5%,–

Further structures

Row | SMILES | activity change, negative = inhibition | Potency
27 | CCOc1ccccc1/C=N/n1nnnc1N | inactive: -0.346% | –
28 | COc1nc(-c2ccc(Cl)cc2Cl)nc2ccccc12 | inconclusive: 14.7% | –
29 | Cc1nc2ccccc2c2oc(C(=O)N3CCc4ccccc43)cc12 | inconclusive: 18.6% | –
30 | CCC(C)[C@@H](C(=O)NCC1CCC(C(=O)O)CC1)n1nnc2ccccc2c1=O (stereo partly specified) | – | inconclusive: 0.731 µM [rising, partial curve, poor fit]
31 | Cc1cc(NC(=O)c2cc3n(n2)C(C(F)(F)F)CC(c2ccco2)N3)no1 (stereo unspecified) | – | inconclusive: 2.06 µM [rising, full curve, poor fit]
32 | O=C(NCc1cccc(C(F)(F)F)c1)C1CC(c2ccc(C(F)(F)F)cc2)=NO1 (stereo unspecified) | inconclusive: -5.74% | –
33 | CCCOc1ccc(C(=O)CCC(=O)Nc2ccc(N3CCN(C)CC3)cc2)cc1 | inconclusive: 4.5% | –
34 | Cc1nc2ccc(Cl)cc2nc(C)/c1=N\O | inconclusive: 7.91% | –
35 | Cc1cc(C)cc(N(CCC#N)C(=O)CSc2ncnc3sccc23)c1 | inconclusive: -3.75% | –
36 | O=C(CCS(=O)(=O)Cc1cccc(Cl)c1)NCCc1ccccc1 | inconclusive: 2.74% | –
37 | Cc1noc(C)c1COC(=O)CCc1nc2ccccc2s1 | inconclusive: 4.84% | –
38 | Cc1cccc(NC(=O)Cn2nc(-c3cccs3)ccc2=O)c1C | inactive: 1.02% | –
39 | O=C(Nc1nc(=O)n(C(=O)C2CC2)s1)c1ccccc1 | inconclusive: -11% | –
40 | O=C(N/N=C/C(Br)=C/c1ccccc1)c1cccs1 | – | inconclusive: 35.5 µM [rising, single point]
41 | COc1ccc2c(-c3ccccc3)cc(SCC(=O)N(C)C3CCS(=O)(=O)C3)nc2c1 (stereo unspecified) | inconclusive: -2.1% | –
42 | COCC(=O)N(Cc1nc2ccccc2c(=O)[nH]1)Cc1cccs1 | inconclusive: 10.2% | –
43 | Fc1cccc2sc(Nc3nc4ccccc4s3)nc12 | inconclusive: -1.46% | –
44 | CC(=O)n1cc([C@H]2C=C(C(=O)Nc3ccccc3)O[C@@H](OCCCCO)C2)c2ccccc21 | – | inconclusive: 31.6 µM [rising, single point]
45 | CCOC(=O)c1cccc(NC(=O)CCc2nc(-c3ccc(C)cc3)no2)c1 | inactive: -1.38% | –
46 | COc1cc(C(C(=O)NC2CCCC2)N(C(=O)Cc2cccs2)C2CC2)cc(OC)c1OC (stereo unspecified) | inconclusive: 0.612% | –
47 | COc1ccc(NC(=O)C(=S)NC2CCCCC2)cc1 | – | inconclusive: 15.8 µM [falling, partial curve]
48 | COC(=O)c1ccc(COc2ccccc2/C=N/NC(=O)c2cccnc2)cc1 | inactive: -17.1% | –
49 | Cc1oc(-c2cccc(Cl)c2)nc1CSCC(=O)O | – | inconclusive: 18.4 µM [falling, single point] and inconclusive: 20 µM [falling, single point]
50 | Cn1c(-c2ccccc2)cnc1SCC(=O)N1CCCCC1 | inconclusive: 1.59% | –
51 | CC(C)(C)C(=O)OCCNc1nc(-c2ccccc2)nc2ccccc12 | inconclusive: -2.21% | –
